Patent US20160115217A1
Results are given in words; binding and its absence hold for the method and conditions named. Binding seen in cells or lysates may run through a third protein. Some binding calls cover weakened binding; strength is not graded here.

The chains behind the UniProt entries cited, without tags or fusion partners.
UniProt P31266: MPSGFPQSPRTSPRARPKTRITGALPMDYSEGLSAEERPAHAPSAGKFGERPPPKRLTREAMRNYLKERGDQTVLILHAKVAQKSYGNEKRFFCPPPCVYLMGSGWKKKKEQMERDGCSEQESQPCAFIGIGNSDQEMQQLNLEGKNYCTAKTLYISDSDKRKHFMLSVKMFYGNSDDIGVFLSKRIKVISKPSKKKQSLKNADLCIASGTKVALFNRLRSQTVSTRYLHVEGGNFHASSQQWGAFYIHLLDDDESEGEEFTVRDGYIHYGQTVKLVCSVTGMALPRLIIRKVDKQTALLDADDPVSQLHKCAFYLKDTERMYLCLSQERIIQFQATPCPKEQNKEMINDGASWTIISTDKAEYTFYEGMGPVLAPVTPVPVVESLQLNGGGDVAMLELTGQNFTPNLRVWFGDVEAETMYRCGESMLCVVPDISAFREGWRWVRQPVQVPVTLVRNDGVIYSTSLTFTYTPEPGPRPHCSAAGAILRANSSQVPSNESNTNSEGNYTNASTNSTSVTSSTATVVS
UniProt Q9R1E0: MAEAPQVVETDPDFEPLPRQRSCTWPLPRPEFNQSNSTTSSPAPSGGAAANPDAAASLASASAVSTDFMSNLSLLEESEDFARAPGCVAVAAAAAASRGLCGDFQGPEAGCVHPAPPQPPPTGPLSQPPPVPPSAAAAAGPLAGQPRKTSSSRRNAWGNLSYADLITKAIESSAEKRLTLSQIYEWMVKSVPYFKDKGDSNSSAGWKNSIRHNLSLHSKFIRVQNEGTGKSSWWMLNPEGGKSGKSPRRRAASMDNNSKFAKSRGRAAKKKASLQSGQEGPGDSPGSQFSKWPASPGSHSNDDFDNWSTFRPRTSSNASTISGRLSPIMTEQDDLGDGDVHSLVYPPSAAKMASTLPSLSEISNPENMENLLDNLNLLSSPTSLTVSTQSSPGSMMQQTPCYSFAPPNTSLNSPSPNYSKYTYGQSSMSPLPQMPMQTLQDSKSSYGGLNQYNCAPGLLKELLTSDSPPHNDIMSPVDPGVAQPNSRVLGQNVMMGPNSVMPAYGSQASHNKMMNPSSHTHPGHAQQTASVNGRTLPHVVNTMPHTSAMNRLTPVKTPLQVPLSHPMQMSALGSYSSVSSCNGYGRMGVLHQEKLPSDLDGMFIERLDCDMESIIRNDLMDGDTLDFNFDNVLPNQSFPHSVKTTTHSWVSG

Key:
[1] = target: endogenous Cs1 (CSL; C2C12 cells) (UniProt P31266); test: co-immunoprecipitation
[2] = target: endogenous Cs1 (CSL; C2C12 cells) (UniProt P31266); test: co-immunoprecipitation from C2C12 cells co-cultured with Jagged1- or LacZ-expressing HEK293 cells
[3] = target: endogenous Cs1 (CSL; C2C12 cells) (UniProt P31266); test: co-immunoprecipitation from co-cultured C2C12 cells

Measured: binding

endogenous Foxo1 (C2C12 cells) (from UniProt Q9R1E0 1-652)
binds: all assays above
